# At least one compound was matched to its structure with a doubt left.
# Experiment: Evaluation test for dissolution property in dissolution liquid pH 1.2 (Test Examples 3 and 4)
# Assay type: physicochemical
# Conditions: dissolution liquid pH 1.2, 37 degrees Celsius, 50 rpm
structure (smiles),measurement,setting,value
COc1ccc(/C=C/C(=O)Nc2ccccc2C(=O)O)cc1OC [Tranilast],Dissolution amount,time 0 min,0 µg/mL
same,Dissolution amount,time 5 min,0.00 ± 0.00 µg/mL
same,Dissolution amount,time 10 min,0.00 ± 0.00 µg/mL
same,Dissolution amount,time 20 min,0.00 ± 0.00 µg/mL
same,Dissolution amount,time 40 min,0.00 ± 0.00 µg/mL
same,Dissolution amount,time 60 min,0.00 ± 0.00 µg/mL
same,Dissolution amount,time 120 min,0.03 ± 0.00 µg/mL
